PubChem BioAssay AID1259308, NCATS | 2017
Here is an unselected part of about 59,000 deposited reagents. Over the whole deposit, about 1,510 (2.6%) got an active call. 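Calls use total luciferase alone and ignore viability, so some active siRNAs may act by altering cell number.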 Entries without a mark were called inactive. Reagents against one gene are numbered here. Not all columns of the deposit are shown.

Purpose: 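Candidate targets for better recombinant protein yield in mammalian cells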 (primary screen)
Cells: human HEK293 embryonic kidney cells stably expressing firefly luciferase (HEK-CMV-Luc2-Hygro)
Reagent: single siRNA against human genes, 0.8 pmol siRNA per well
Duration: 72 h
Read-out: 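Reporter luminescence and viable-cell signal on separate replicate plates, given as percent of non-targeting control and median/MAD z-scores, plus per-cell luciferase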
Scale: total luciferase, z-score: higher = more reporter protein produced
Call rule: 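An siRNA counts as active if its total luciferase robust z-score exceeds 3; genes with two or more such siRNAs out of three were retested with fresh siRNAs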
Calls: active = raised luciferase; inactive = no rise

The first 2 entries, to show the layout:
PRPF6 #1: total luciferase, z-score = 1.67
PRPF6 #2: total luciferase, z-score = 0.64

Results, repeating the preview:
PRPF6 #1: total luciferase, z-score = 1.67
PRPF6 #2: total luciferase, z-score = 0.64
PRPF6 #3: total luciferase, z-score = -0.667
ZFAND4 #1: total luciferase, z-score = 0.603
ZFAND4 #2: total luciferase, z-score = -1.46
ZFAND4 #3: total luciferase, z-score = -0.196
ZXDC #1: total luciferase, z-score = -0.223
ZXDC #2: total luciferase, z-score = 2.02
ZXDC #3: total luciferase, z-score = 1.57
PSMB11 #1: total luciferase, z-score = 0.35
PSMB11 #2: total luciferase, z-score = -0.0243
PSMB11 #3: total luciferase, z-score = 0.93
COIL #1: total luciferase, z-score = -0.61
COIL #2: total luciferase, z-score = -0.799
COIL #3: total luciferase, z-score = 1.78
IL2RG #1: total luciferase, z-score = -0.433
IL2RG #2: total luciferase, z-score = -0.582
IL2RG #3: total luciferase, z-score = 0.373
MAP3K12 #1: total luciferase, z-score = 0.572
MAP3K12 #2: total luciferase, z-score = -0.129
MAP3K12 #3: total luciferase, z-score = 0.507
